Test results from doi:10.1101/2023.09.13.557610.
Like-named read-outs stand apart in the source and are kept apart here. No constants are given. Whether binding was seen depends on the method and setting. In cells and extracts the contact can be indirect. Here binding means that the protein was enriched with, or labelled near, the bait; the list need not be complete. Tags and fused reporters may be left off the sequences shown.

Columns and labels:
SPCA2C-BirA*HA (mouse) [1] = experiment: proximity labelling
SPCA2C-BirA*HA (mouse) [2] = experiment: proximity labelling; remark: listed apart in the source

B1: extended synaptotagmin-1 (ESYT1), endogenous (protein, UniProt Q9BSJ8 1-1104)
chain: MERSPGEGPSPSPMDQPSAPSDPTDQPPAAHAKPDPGSGGQPAGPGAAGEALAVLTSFGRRLLVLIPVYLAGAVGLSVGFVLFGLALYLGWRRVRDEKERSLRAARQLLDDEEQLTAKTLYMSHRELPAWVSFPDVEKAEWLNKIVAQVWPFLGQYMEKLLAETVAPAVRGSNPHLQTFTFTRVELGEKPLRIIGVKVHPGQRKEQILLDLNISYVGDVQIDVEVKKYFCKAGVKGMQLHGVLRVILEPLIGDLPFVGAVSMFFIRRPTLDINWTGMTNLLDIPGLSSLSDTMIMDSIAAFLVLPNRLLVPLVPDLQDVAQLRSPLPRGIIRIHLLAARGLSSKDKYVKGLIEGKSDPYALVRLGTQTFCSRVIDEELNPQWGETYEVMVHEVPGQEIEVEVFDKDPDKDDFLGRMKLDVGKVLQASVLDDWFPLQGGQGQVHLRLEWLSLLSDAEKLEQVLQWNWGVSSRPDPPSAAILVVYLDRAQDLPLKKGNKEPNPMVQLSIQDVTQESKAVYSTNCPVWEEAFRFFLQDPQSQELDVQVKDDSRALTLGALTLPLARLLTAPELILDQWFQLSSSGPNSRLYMKLVMRILYLDSSEICFPTVPGCPGAWDVDSENPQRGSSVDAPPRPCHTTPDSQFGTEHVLRIHVLEAQDLIAKDRFLGGLVKGKSDPYVKLKLAGRSFRSHVVREDLNPRWNEVFEVIVTSVPGQELEVEVFDKDLDKDDFLGRCKVRLTTVLNSGFLDEWLTLEDVPSGRLHLRLERLTPRPTAAELEEVLQVNSLIQTQKSAELAAALLSIYMERAEDLPLRKGTKHLSPYATLTVGDSSHKTKTISQTSAPVWDESASFLIRKPHTESLELQVRGEGTGVLGSLSLPLSELLVADQLCLDRWFTLSSGQGQVLLRAQLGILVSQHSGVEAHSHSYSHSSSSLSEEPELSGGPPHITSSAPELRQRLTHVDSPLEAPAGPLGQVKLTLWYYSEERKLVSIVHGCRSLRQNGRDPPDPYVSLLLLPDKNRGTKRRTSQKKRTLSPEFNERFEWELPLDEAQRRKLDVSVKSNSSFMSRERELLGKVQLDLAETDLSQGVARWYDLMDNKDKGSS
binding (SPCA2C-BirA*HA (mouse) [1]): binds
binding (SPCA2C-BirA*HA (mouse) [2]): binds
